The target in test [1] is T1, Flag-ODC1 (in Ishikawa or AN3CA cells) (UniProt P11926).
T1 sequence: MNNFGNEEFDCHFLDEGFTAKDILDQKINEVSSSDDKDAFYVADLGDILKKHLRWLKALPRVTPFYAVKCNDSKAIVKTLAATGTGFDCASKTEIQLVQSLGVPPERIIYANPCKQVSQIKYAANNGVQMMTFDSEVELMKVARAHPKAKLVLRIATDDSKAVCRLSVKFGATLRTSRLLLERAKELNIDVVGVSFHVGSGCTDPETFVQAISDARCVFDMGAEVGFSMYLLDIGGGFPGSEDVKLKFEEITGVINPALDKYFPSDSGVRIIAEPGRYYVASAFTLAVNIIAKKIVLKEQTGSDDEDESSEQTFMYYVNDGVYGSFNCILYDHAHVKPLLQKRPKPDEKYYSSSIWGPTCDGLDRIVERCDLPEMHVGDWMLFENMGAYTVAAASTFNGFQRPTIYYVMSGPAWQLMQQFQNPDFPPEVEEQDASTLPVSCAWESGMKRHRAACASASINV
Nature of the test: co-IP; Ishikawa or AN3CA cells transfected with Flag-tagged plasmids (some with GFP-HOXB9 or HA-Ub; with or without OA 30 µM, putrescine 50 µM, MG132); lysate in weak RIPA buffer (1x PBS, pH 7.4, 1% NP40); anti-Flag affinity gel overnight at 4 °C; blot for the endogenous partner.

Sequences of proteins named here, by UniProt entry; tags and fusion partners are left off. A change or cut given only in a name is not applied to a line headed by its entry. Residues count along the entry.
UniProt P17482: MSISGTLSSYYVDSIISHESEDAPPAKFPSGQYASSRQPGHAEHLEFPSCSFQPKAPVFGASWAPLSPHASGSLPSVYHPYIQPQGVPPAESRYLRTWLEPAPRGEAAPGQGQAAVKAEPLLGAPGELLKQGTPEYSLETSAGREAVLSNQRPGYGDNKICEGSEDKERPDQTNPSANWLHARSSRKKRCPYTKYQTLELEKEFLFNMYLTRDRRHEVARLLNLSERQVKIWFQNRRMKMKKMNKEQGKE
GST-HOXB9 1-184 segment: residues 1-184 of P17482
UniProt P54368: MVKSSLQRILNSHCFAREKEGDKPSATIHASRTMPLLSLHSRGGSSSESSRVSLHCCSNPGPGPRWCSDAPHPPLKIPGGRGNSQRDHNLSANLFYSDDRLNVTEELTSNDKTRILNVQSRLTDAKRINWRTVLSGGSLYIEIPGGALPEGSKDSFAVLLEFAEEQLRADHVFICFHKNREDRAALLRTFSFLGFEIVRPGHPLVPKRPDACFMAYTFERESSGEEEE

Test [2] concerns the target T2, Ornithine Decarboxylase 1 (ODC1), endogenous (human (endogenous in Ishikawa and AN3CA)) (UniProt P11926).
T2 sequence: T1 sequence
Described as above.

For test [3], the target named is Flag-HOXB9 (in Ishikawa or AN3CA cells) (UniProt P17482). The description is as above.
Another test deals with Flag-OAZ1 (UniProt P54368). The test is described as above.
In test [4] the target is Homeobox B9 (HOXB9), endogenous (human (endogenous in Ishikawa and AN3CA)) (UniProt P17482). Description: co-IP; endogenous proteins; Ishikawa (24 h OA) or AN3CA (48 h OA, 30 µM) lysate in weak RIPA buffer (1x PBS, pH 7.4, 1% NP40); anti-HOXB9 overnight at 4 °C, protein A or G agarose; blot anti-ODC1.
In the next test the target is GST-HOXB9 1-184 segment (UniProt P17482). Description: pull-down; GST fusion proteins from Rosetta bacteria held on Glutathione-Sepharose 4B beads; incubated overnight with pre-cleared lysates of 293T cells transfected with Flag-tagged plasmids; washed with PBS; blot anti-Flag; only the target purified.

These are yes or no findings as the source states them, for the method shown. In cells and extracts the contact can be indirect. Some entries that bind do so weakly or less than the wild type. For part of these data: Tags and fused reporters may be left off the sequences shown.

Regarding “ornithine decarboxylase antizyme 1 (OAZ1), endogenous (from UniProt P54368 1-228)”, the binding result in test [1] is given as “binds”. For the molecule “Homeobox B9 (HOXB9), endogenous (from UniProt P17482 1-250)”, in test [1], the binding result is reported as “binds”.

On to GFP-HOXB9 (from UniProt P17482 1-250), for which the binding result in test [2] and in test [1] was “binds” each time.

B1: E3 ligase Praja2, endogenous (enzyme, UniProt O43164 1-708)
chain: MSQYTEKEPAAMDQESGKAVWPKPAGGYQTITGRRYGRRHAYVSFKPCMTRHERSLGRAGDDYEVLELDDVPKENSSGSSPLDQVDSSLPSEPIFEKSETEIPTCGSALNQTTESSQSFVAVHHSEEGRDTLGSSTNLHNHSEGEYIPGACSASSVQNGIALVHTDSYDPDGKHGEDNDHLQLSAEVVEGSRYQESLGNTVFELENREAEAYTGLSPPVPSFNCEVRDEFEELDSVPLVKSSAGDTEFVHQNSQEIQRSSQDEMVSTKQQNNTSQERQTEHSPEDAACGPGHICSEQNTNDREKNHGSSPEQVVRPKVRKLISSSQVDQETGFNRHEAKQRSVQRWREALEVEESGSDDLLIKCEEYDGEHDCMFLDPPYSRVITQRETENNQMTSESGATAGRQEVDNTFWNGCGDYYQLYDKDEDSSECSDGEWSASLPHRFSGTEKDQSSSDESWETLPGKDENEPELQSDSSGPEEENQELSLQEGEQTSLEEGEIPWLQYNEVNESSSDEGNEPANEFAQPAFMLDGNNNLEDDSSVSEDLDVDWSLFDGFADGLGVAEAISYVDPQFLTYMALEERLAQAMETALAHLESLAVDVEVANPPASKESIDGLPETLVLEDHTAIGQEQCCPICCSEYIKDDIATELPCHHFFHKPCVSIWLQKSGTCPVCRRHFPPAVIEASAAPSSEPDPDAPPSNDSIAEAP
Turning to B1, in test [3], the binding result is given as “binds”.

B2: Ornithine Decarboxylase 1 (ODC1), endogenous (enzyme, UniProt P11926 1-461)
chain: T1 sequence
Regarding B2, the binding result (in test [3]; in the test with Flag-OAZ1; in test [4]) was “binds” in each case.

B3: Flag-ODC1 (in 293T cells) (enzyme, UniProt P11926 1-461)
chain: T1 sequence
B3: in the test with GST-HOXB9 1-184 segment, the binding result is “binds”.

Values taken from publication PMC12796254.
